{"source": "patent US8735538B1", "about": "“Use of methanobactin” (priority 2006, dated 2014)", "key": {"[1]": {"assay": "ITC, metal binding to mb: Ag(I)", "conditions": "Ag(I) column", "experimental": "(§1) FIG. 14. Binding isotherm of 3.2 mM HgCl2 (A), HAuCl4 (B), AgNO3 (C) NiCl2 (D), ZnCl2 (E) or FeCl3 (F) into 400 μM mb (cell) aqueous solution at 25° C. Binding isotherm of 1.6 mM HAuCl4 (B). The curve fittings for two-site binding algorithm were used.\n(§2) FIG. 15. Binding isotherm of 3.2 mM CdCl2 (A), CoCl2(B), FeCl3 (C), or MnCl2(D) into […] mb aqueous solution at 25° C. Curve fittings for one-site binding algorithm (B, D) or two-site binding algorithm (A, C) were used.\n(§3) ITC was performed with following modifications from the previously described procedure (Choi et al., 2006). First, concentrations of the titrant and cell solutions were raised to 3.2 mM and 0.4 mM, respectively. Second, the interval between titrant injections were decreased to 600 s and the stirring rate decreased to 380 rpm."}, "[2]": {"assay": "ITC, metal binding to mb: Hg(II)", "conditions": "Hg(II) column", "experimental": "as §1, §2, §3"}, "[3]": {"assay": "ITC, metal binding to mb: Pb(II)", "conditions": "Pb(II) column, one-site binding model", "experimental": "as §1, §2, §3"}, "[4]": {"assay": "ITC, metal binding to mb: Cd(II)", "conditions": "Cd(II) column", "experimental": "as §1, §2, §3"}, "[5]": {"assay": "ITC, metal binding to mb: Co(II)", "conditions": "Co(II) column, one-site fit, 25° C.", "experimental": "as §1, §2, §3"}, "[6]": {"assay": "ITC, metal binding to mb: Mn(II)", "conditions": "Mn(II) column, one-site fit, 25° C.", "experimental": "as §1, §2, §3"}, "[7]": {"assay": "ITC, metal binding to mb: Zn(II)", "conditions": "Zn(II) column", "experimental": "as §1, §2, §3"}, "[8]": {"conditions": "Cu(II) column, cited from earlier work"}, "[9]": {"conditions": "first site, two-site fit, 25° C."}}, "note": "Like-named read-outs stand apart in the source and are kept apart here.", "data": [{"substance": "methanobactin [mb]", "values": [{"measurement": "N1", "setting": "[1]; [9]", "result": "0.47 ± 0.006", "unit": "metal mb^−1"}, {"measurement": "ΔG1", "setting": "[1]; [9]", "result": -10.1, "unit": "kcal/mol"}, {"measurement": "N1", "setting": "[1]; second site", "result": "0.75 ± 0.007", "unit": "metal mb^−1"}, {"measurement": "ΔG1", "setting": "[1]; second site", "result": -7.74, "unit": "kcal/mol"}, {"measurement": "N1", "setting": "[2]; [9]", "result": "0.25 ± 0.005", "unit": "metal mb^−1"}, {"measurement": "N1", "setting": "[2]; second site", "result": "0.42 ± 0.01", "unit": "metal mb^−1"}, {"measurement": "N1", "setting": "[3]", "result": "0.61 ± 0.003", "unit": "metal mb^−1"}, {"measurement": "N1", "setting": "[4]; [9]", "result": "0.2 ± 0.07", "unit": "metal mb^−1"}, {"measurement": "ΔH1", "setting": "[4]; [9]", "result": "-3.15 ± 1.7", "unit": "kcal/mol"}, {"measurement": "N1", "setting": "[4]; second site", "result": "0.22 ± 0.01", "unit": "metal mb^−1"}, {"measurement": "ΔH1", "setting": "[4]; second site", "result": "-18.96 ± 1.04", "unit": "kcal/mol"}, {"measurement": "N1", "setting": "[5]", "result": "0.49 ± 0.003", "unit": "metal mb^−1"}, {"measurement": "N1", "setting": "[6]", "result": "0.54 ± 0.005", "unit": "metal mb^−1"}, {"measurement": "N1", "setting": "[7]; [9]", "result": "0.41 ± 0.004", "unit": "metal mb^−1"}, {"measurement": "ΔG1", "setting": "[7]; [9]", "result": -9.08, "unit": "kcal/mol"}, {"measurement": "ΔH1", "setting": "[7]; [9]", "result": "-0.32 ± 0.01", "unit": "kcal/mol"}, {"measurement": "ΔS1", "setting": "[7]; [9]", "result": 29.4, "unit": "cal mol^−1 deg^−1"}, {"measurement": "N1", "setting": "[7]; second site", "result": "0.13 ± 0.04", "unit": "metal mb^−1"}, {"measurement": "ΔG1", "setting": "[7]; second site", "result": -5.8, "unit": "kcal/mol"}, {"measurement": "ΔH1", "setting": "[7]; second site", "result": "2.40 ± 0.78", "unit": "kcal/mol"}, {"measurement": "ΔS1", "setting": "[7]; second site", "result": 27.5, "unit": "cal mol^−1 deg^−1"}, {"measurement": "N1", "setting": "[8]; first site", "result": "0.11 ± 0.003", "unit": "metal mb^−1"}, {"measurement": "N1", "setting": "[8]; second site", "result": "0.14 ± 0.01", "unit": "metal mb^−1"}]}]}
